Experimental data as given in US9890202B2, “Peptides based on the transmembrane domain of a toll-like receptor (TLR) for treatment of TLR-mediated diseases” (Yeda Research and Development Co. Ltd., priority 2010, dated 2018).
At least one peptide structure holds a part that was inferred or is arguable (an end, a ring closure or a residue). Some entries repeat one wording, which the source may state once for all of them. Ends that are not written are not given here.

By UniProt entry, the sequences of proteins in these tests, tags left out. Residues count along the entry.
UniProt Q9QUN7, 25-784: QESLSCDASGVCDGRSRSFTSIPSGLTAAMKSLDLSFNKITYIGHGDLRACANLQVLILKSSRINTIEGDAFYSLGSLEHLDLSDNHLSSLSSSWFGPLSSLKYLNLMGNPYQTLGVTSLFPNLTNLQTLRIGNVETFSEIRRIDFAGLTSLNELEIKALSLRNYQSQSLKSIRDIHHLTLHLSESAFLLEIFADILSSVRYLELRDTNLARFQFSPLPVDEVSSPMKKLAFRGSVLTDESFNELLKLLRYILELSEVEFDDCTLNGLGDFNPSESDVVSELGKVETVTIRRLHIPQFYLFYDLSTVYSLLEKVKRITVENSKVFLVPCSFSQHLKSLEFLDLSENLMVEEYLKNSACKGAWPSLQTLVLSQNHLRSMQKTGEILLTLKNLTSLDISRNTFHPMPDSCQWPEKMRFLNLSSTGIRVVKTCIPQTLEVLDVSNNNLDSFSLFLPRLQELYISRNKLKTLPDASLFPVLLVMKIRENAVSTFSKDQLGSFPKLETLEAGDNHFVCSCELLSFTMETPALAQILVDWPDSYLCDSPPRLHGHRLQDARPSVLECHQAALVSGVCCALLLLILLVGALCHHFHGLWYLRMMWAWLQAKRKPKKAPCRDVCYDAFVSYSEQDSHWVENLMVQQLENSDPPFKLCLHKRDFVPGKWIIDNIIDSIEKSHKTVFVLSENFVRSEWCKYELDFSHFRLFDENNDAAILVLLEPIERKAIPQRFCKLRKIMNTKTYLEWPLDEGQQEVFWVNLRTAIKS

What was measured:
TLR2 [1] = target: T1, TLR2 (Mus musculus, UniProt Q9QUN7); experiment: TNFα secretion by RAW264.7 in response to LTA (TLR2 activator); assay type: cell-based, murine; settings: 100 ng/ml LTA, dose-dependent, highest at 10 μM peptide, ELISA after 5 h
T1 construct: endogenous in cells; host or cells: RAW264.7 murine macrophages (ATCC TIB-71)

TLR2 [2] = experiment: Murine model of acute septic shock caused by LTA (TLR2 hyperactivation); assay type: in vivo, mice; settings: up to 14 days after LTA injection
Protocol: To examine the effect of TLR TM peptides on acute septic shock driven by TLR2 hyperactivation we have used a murine model as previously described (Meng et al., 2004). Briefly, 12 weeks old C57 Black female mice (supplied by Harlan) were treated with 100 μg of LTA injected IP in a saline solution (pH 6.5) containing 200 μg/ml of D-galactoseamine (Calbiochem). Treated mice received two injections of peptide at doses of 1, 5 and 10 mg/kg. First injection was given at the time of LTA injection, second injection was given 2 hrs (1 mg/kg) or 12 hrs (5 and 10 mg/kg) later. Animals were monitored for survival for 96 hours after LTA injection. Peptides used for in-vivo experiments were treated twice with 20% acetic acid in order to replace the trifluoroacetate anion added during HPLC purification. For all groups n=8.
In order to test the activity of our peptides in-vivo, we have used a murine model for acute septic shock caused by hyperactivation of TLR2. Mice were injected i.p. with 100 μg of LTA and then treated with mTLR2 TM C′-CtoA peptide (SEQ ID NO:86) in different regimes (see materials and methods section (xi)) or with saline only.

## KKALVSGVAAALLLLILLVGKK-NH2 [mTLR2 N′ TM (C to A)]
TLR2 [1]
  inhibition of TNFα secretion after LTA activation: significantly inhibit

## KKLILLVGALAHHFHGLWKK-NH2 [mTLR2 C′ TM (C to A)]
TLR2 [2]; 1 mg/kg, two i.p. injections (second 2 hrs later)
  survival rate: 50%
TLR2 [2]; 5 mg/kg, two i.p. injections (second 12 hrs later)
  survival rate: 62.5%
